No constants are given. Whether binding was seen depends on the method and setting. Some results given as binding are weak or reduced against the parent protein; the word gives no strength.
Target: Roq1 (Recognition of XopQ 1)
Experiment: native gel or EMSA

B1: Roq1 (Recognition of XopQ 1) (receptor, UniProt A0A290U7C4)
chain: MLTSSSHHGRSYDVFLSFRGEDTRKTFVGHLFNALIEKGIHTFMDDKELKRGKSISSELMKAIGESRFAVVVFSKNYASSTWCLEELVKILEIHEKFELIVVPVFYDVDPSTVRKQNGEYAVCFTKFEANLVDDRDKVLRWREALTKVANISGHDLRNTYNGDESKCIQQILKDIFDKFCFSISITNRDLVGIESQIKKLSSLLRMDLKGVRLVGIWGMGGVGKTTAARALFNRYYQNFESACFLEDVKEYLQHHTLLYLQKTLLSKLLKVEFVDCTDTEEMCVILKRRLCSKKVLVVLDDVNHNDQLDKLVGAEDWFGSGSRIVITTRDMKLLKNHDVHETYEIKVLEKDEAIELFNLHAFKRSSPEKEFKELLNLVVDYTGGLPLALKVLGSLLYKEDLDVWISTIDRLKDNPEGEIMATLKISFDGLRDYEKSIFLDIACFFRGYNQRDMTALFHASGFHPVLGVKTLVEKSLIFILEDKIQMHDLMQEMGRQIAVQESPMRRIYRPEDVKDACIGDMRKEAIEGLLLTEPEQFEEGELEYMYSAEALKKTRRLRILVKEYYNRGFDEPVAYLPNSLLWLEWRNYSSNSFPSNFEPSKLVYLTMKGSSIIELWNGAKRLAFLTTLDLSYCHKLIQTPDFRMITNLERLILSSCDALVEVHPSVGFLKNLILLNMDHCISLERLPAIIQSECLEVLDLNYCFNLKMFPEVERNMTHLKKLDLTSTGIRELPASIEHLSSLENLQMHSCNQLVSLPSSIWRFRNLKISECEKLGSLPEIHGNSNCTRELILKLVSIKELPTSIGNLTSLNFLEICNCKTISSLSSSIWGLTSLTTLKLLDCRKLKNLPGIPNAINHLSGHGLQLLLTLEQPTIYERLDLLRIIDMSWCSCISSLPHNIWMLKFLRILCISYCSRLEYLPENLGHLEHLEELLADGTGILRLPSSVARLNKLEVLSFRKKFAIGPKVQYSSSMLNLPDDVFGSLGSLGSVVKLNLSGNGFCNLPETMNQLFCLEYLDITFCQRLEALPELPPSIKELYVDEHLALRIMEDLVIKCKELNLIAVTKIEYQNFYRWLDSIWSDVSELLENSQKQQLDDMLQLIPFSYLSTAKREEVLKIVIHGTRIPEWFRWQDRSATTMSVNLPEYWYTENFLGFAICCSCCFYHSARSYDVEFEGSMHHYNYDSSYWKEYEEPSYDFYERDSIEITAKLTPRHKGMRTEELKKVCSFSMNVLRRATAVPNMCFAFFPFNSLCHISNLQANNPNDYGIFETCLSPGDIRHRGKQWGFNLVYKDETGGSVTHEMLINR
**Q.** B1 was tested. Which binding did it give?
**A.** binds

From doi:10.1101/2025.04.11.646618
